Results are given in words; binding and its absence hold for the method and conditions named.
Tests used:
Assay in all cases: two-hybrid; OsCOIs as baits in pGBKT7, OsJAZs or JAZs as preys in pGADT7, co-transformed into S. cerevisiae AH109; growth on SD without Ade, His, Leu and Trp (QDO) with 100 µM coronatine, 7 days; graded strong (+++), medium (++), weak (+), undetectable (−)
[1] = molecular target: T1, OsCOI2(H391Y) (Oryza sativa) (UniProt Q84QA7)
T1 sequence: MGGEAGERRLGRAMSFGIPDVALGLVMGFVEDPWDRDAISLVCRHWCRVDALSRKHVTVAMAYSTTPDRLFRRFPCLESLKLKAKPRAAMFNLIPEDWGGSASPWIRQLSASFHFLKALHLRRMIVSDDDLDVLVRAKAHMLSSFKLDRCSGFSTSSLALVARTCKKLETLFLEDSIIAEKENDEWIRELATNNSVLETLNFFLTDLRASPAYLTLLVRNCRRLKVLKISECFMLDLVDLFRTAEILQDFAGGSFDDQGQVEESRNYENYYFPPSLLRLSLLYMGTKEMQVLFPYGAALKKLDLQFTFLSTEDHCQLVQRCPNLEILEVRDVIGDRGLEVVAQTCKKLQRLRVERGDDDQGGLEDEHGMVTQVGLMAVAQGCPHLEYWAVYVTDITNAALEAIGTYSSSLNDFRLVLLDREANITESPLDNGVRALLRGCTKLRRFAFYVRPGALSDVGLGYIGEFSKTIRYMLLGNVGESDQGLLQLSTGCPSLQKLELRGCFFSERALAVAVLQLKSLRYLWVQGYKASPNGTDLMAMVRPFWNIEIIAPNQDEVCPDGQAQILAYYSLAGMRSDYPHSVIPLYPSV

OsCOI2 (Oryza sativa) = molecular target: T2, OsCOI2 (Oryza sativa) (UniProt Q84QA7)
T2 sequence: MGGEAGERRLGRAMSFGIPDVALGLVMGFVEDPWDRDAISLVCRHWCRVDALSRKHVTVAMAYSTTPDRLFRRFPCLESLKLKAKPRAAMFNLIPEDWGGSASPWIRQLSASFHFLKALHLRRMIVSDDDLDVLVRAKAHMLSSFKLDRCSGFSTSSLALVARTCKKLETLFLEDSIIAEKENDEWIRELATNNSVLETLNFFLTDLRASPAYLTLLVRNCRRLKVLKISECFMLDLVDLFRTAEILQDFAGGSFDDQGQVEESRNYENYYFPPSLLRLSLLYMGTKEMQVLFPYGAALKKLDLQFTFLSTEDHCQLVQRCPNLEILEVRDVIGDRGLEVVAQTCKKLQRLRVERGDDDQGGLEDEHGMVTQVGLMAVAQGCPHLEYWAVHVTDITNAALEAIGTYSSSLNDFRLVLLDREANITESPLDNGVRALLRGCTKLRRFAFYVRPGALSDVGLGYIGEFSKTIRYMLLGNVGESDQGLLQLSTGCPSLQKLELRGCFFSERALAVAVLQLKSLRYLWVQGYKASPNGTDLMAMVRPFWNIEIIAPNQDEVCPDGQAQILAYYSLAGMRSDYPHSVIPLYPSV

OsCOI1b (Oryza sativa) = molecular target: T3, OsCOI1b (Oryza sativa) (UniProt Q60EH4)
T3 sequence: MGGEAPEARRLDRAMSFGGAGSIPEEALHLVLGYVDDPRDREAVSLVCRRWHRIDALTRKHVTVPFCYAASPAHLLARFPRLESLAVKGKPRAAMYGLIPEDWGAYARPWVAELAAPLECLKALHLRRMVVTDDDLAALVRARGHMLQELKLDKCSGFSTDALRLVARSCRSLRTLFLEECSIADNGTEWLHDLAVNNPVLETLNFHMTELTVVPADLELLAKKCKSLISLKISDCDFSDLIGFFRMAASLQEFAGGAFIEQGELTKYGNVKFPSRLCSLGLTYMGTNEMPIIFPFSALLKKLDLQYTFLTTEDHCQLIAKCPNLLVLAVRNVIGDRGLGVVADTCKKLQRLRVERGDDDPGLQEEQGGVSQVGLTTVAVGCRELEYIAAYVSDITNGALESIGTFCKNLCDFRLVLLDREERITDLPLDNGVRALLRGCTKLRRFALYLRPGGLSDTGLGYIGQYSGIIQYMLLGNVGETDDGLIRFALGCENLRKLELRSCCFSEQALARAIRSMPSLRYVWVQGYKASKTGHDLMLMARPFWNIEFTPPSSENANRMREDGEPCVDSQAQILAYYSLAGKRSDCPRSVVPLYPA

OsCOI1a (Oryza sativa) = molecular target: T4, OsCOI1a (Oryza sativa) (UniProt Q6Y9P5)
T4 sequence: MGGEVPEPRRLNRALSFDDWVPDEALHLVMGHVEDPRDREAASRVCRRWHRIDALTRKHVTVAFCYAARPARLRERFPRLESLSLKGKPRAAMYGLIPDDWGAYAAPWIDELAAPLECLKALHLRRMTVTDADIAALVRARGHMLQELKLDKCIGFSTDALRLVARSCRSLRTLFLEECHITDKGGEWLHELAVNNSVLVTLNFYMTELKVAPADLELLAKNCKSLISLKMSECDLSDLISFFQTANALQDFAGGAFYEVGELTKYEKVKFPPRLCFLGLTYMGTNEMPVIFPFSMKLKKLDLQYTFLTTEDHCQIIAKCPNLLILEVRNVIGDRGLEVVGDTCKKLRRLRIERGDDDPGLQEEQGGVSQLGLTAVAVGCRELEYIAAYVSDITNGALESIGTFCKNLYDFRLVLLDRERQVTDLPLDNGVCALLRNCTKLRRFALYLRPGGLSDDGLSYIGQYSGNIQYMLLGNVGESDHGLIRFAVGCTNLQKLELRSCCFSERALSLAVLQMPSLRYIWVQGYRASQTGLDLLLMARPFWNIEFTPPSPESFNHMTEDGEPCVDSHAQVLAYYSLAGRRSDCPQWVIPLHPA

Measured: binding

B1: OsJAZ3 (protein, UniProt Q8GSI0 1-179)
chain: MASTDPMTRRFAVACGVLSQYVKANSSQPSTAAPVAQGVSGLMAAAAAAAAAPVVQEPGCEVDGGGQQFTIFYAGKVVVIDRCTPAMAAELMRFASAAQGGGGAPEAPPALVDMPIARKASLKRFLAKRKATPASARSSYVVRAAAAEEEQPPAKKAKAAVERREDWLALGSLGHMHSR
no binding: [1] | OsCOI2 (Oryza sativa)

B2: OsJAZ12 (protein, UniProt Q6Z2K1 1-157)
chain: MPPPAAVASLTLQVPGGAHDVTSLATSPRTMAVPGTTEQLTIFYSGSMVKFDNVPREKIRYACRLRRLYSSLQRSLQTQDTSMFPSSSSLHIQTKRRGYSVIRLLREMLMVCSSTRTKPMLVHSDSIGAQRTGTPPSRRRIHARGKSRSCQEMSHCW
no binding: OsCOI1b (Oryza sativa) | [1] | OsCOI1a (Oryza sativa) | OsCOI2 (Oryza sativa)

B3: OsJAZ4 (protein, UniProt Q10QW3 1-187)
chain: MAMEGKSRRFAVACGVLSQYVRAEQKMAAAAGAAPARAVTTLSLMPGAEVVVEEEERREVGEEEAGPATAPAAPLTIFYGGRMVVFEDFPADKAAEVMRMASSGMAAAPAQREGAALADMPIMRKASLQRFFAKRKDRLAATTPYARPSPAETKASEPEEKKTPTSWLDLAASASAAARRDSLTIAL
no binding: [1] | OsCOI1a (Oryza sativa) | OsCOI2 (Oryza sativa)
